For seven molecules, binding results are on record in patent publication US20210054078A1.

Sequences of proteins named here, by UniProt entry; tags and fusion partners are left off. A change or cut given only in a name is not applied to a line headed by its entry. Residues count along the entry.
UniProt Q9NZQ7: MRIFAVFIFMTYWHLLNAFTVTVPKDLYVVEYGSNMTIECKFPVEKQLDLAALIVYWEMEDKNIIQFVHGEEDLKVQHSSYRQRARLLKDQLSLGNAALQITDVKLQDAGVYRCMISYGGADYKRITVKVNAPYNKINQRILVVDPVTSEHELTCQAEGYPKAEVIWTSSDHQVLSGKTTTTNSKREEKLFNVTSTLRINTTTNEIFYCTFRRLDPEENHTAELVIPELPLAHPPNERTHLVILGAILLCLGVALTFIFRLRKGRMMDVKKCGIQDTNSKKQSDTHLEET
human PD-L1 on hPD-L1/CHO-K1 overexpressing cells: residues 19-290 of Q9NZQ7
UniProt Q9EP73, residues 19-290: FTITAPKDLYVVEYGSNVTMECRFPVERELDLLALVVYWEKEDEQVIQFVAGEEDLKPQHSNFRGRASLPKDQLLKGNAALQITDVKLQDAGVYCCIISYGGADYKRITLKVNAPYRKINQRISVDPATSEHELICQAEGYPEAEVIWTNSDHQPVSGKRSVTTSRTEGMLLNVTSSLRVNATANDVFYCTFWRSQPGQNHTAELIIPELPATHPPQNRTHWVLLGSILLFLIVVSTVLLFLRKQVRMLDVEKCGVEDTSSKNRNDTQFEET

No constants are given. Whether binding was seen depends on the method and setting. Some results given as binding are weak or reduced against the parent protein; the word gives no strength.

For experiment [1], the target named is Human PD-L1-HisTag (#10084-H08H, Sino Biological Inc.) (human) (UniProt Q9NZQ7). Briefly: ELISA on coated His-tag human PD-L1, OD450-630. A general note: ELISA stands for enzyme-linked immunosorbent assay.
Experiment [2] addresses human PD-L1 on hPD-L1/CHO-K1 overexpressing cells (human) (UniProt Q9NZQ7). Briefly: flow cytometry, purified IgG on hPD-L1/CHO-K1 cells, PE anti-human IgG-Fc.
The target in experiment [3] is mouse PD-L1 on mPD-L1/CHO-K1 overexpressing cells (mouse) (UniProt Q9EP73). Briefly: flow cytometry, purified IgG on mPD-L1/CHO-K1 cells, PE anti-human IgG-Fc. On the technique in general: In flow cytometry, cells or beads pass a laser one at a time.
In experiment [4] the target is human PD-L1 on hPD-L1/CHO-K1 overexpressing cells (human) (UniProt Q9NZQ7). Briefly: flow cytometry on hPD-L1/CHO-K1 cells.
Experiment [5] addresses mouse PD-L1 on mPD-L1/CHO-K1 overexpressing cells (mouse) (UniProt Q9EP73). Briefly: flow cytometry on mPD-L1/CHO-K1 cells.

B1: 1G1 anti-PD-L1 antibody (IgG form) (antibody, V domains shown)
VH: QVQLVESGGGLVQPGRSLRLSCAASGFTFDDYAMHWVRQAPGKGLEWVSGISWNSGSIGYADSVKGRFTISRDNAKNSLYLQMNSLRAEDTAVYYCAKPRDISSWLGMDVWGQGTTVTVSS
VL: DIQMTQSPSSVSASVGDRVTITCRASQDISSWLAWYQQKPGKAPKLLIYAASSLQSGVPSRFSGSGSGTDFTLTISSLQPEDSATYYCQQTNNFPYTFGQGTKLEIKR
Regarding B1, the binding result in experiment [1] and in experiment [2] was “binds” throughout.

B2: ME4 anti-PD-L1 antibody (IgG form) (antibody, V domains shown)
VH: QVQLVESGAEVKKPGSSVKVSCKASGGTFNNYAVSWVRQAPGQGLEWMGRIIPILGIANYAQTFQGRVTITADKSTTTAYMELSSLRSEDTAVYYCARSYSGYAEGAFDIWGQGTMVTVSS
VL: QFVLTQPPSVSGAPGQRVTISCTGSSSNIGAGYDVHWYQQLPGTAPKVLIYGNSDRPSGVPDRFSGSKSGTSASLAITGLQGEDKATYYCQSYDSRLSGPVFGTGTKVTVLG
With B2, the binding result in experiment [1], in experiment [2] and in experiment [3] was “binds” each time.

B3: ME4.A12 anti-PD-L1 antibody (IgG form) (antibody, V domains shown)
VH: QVQLVESGAEVKKPGSSVKVSCKASGGTFNNYAVSWVRQAPGQGLEWMGRIIPILGIANYAQTFQGRVTITADKSTTTAYMELSSLRSEDTAVYYCARSHWGYAHGAFDIWGQGTMVTVSS
VL: QFVLTQPPSVSGAPGQRVTISCTGSSSNIGAGYDVHWYQQLPGTAPKVLIYGNSDRPSGVPDRFSGSKSGTSASLAITGLQGEDKATYYCQSYDSRLSGPVFGTGTKVTVLG
Regarding B3, the binding entry in experiment [4] and in experiment [5] was “binds” in each case.

B4: ME4.A11 anti-PD-L1 antibody (IgG form) (antibody, V domains shown)
VH: QVQLVESGAEVKKPGSSVKVSCKASGGTFNNYAVSWVRQAPGQGLEWMGRIIPILGIANYAQTFQGRVTITADKSTTTAYMELSSLRSEDTAVYYCARSRGGYAHGAFDIWGQGTMVTVSS
VL: QFVLTQPPSVSGAPGQRVTISCTGSSSNIGAGYDVHWYQQLPGTAPKVLIYGNSDRPSGVPDRFSGSKSGTSASLAITGLQGEDKATYYCQSYDSRLSGPVFGTGTKVTVLG
For B4, the binding entry in experiment [4] and in experiment [5] was “binds” each time.

B5: ME4.A2 anti-PD-L1 antibody (IgG form) (antibody, V domains shown)
VH: QVQLVESGAEVKKPGSSVKVSCKASGGTFNNYAVSWVRQAPGQGLEWMGRIIPILGIANYAQTFQGRVTITADKSTTTAYMELSSLRSEDTAVYYCARSSRGYAHGAFDIWGQGTMVTVSS
VL: QFVLTQPPSVSGAPGQRVTISCTGSSSNIGAGYDVHWYQQLPGTAPKVLIYGNSDRPSGVPDRFSGSKSGTSASLAITGLQGEDKATYYCQSYDSRLSGPVFGTGTKVTVLG
Take B5: the binding entry in experiment [4] and in experiment [5] was “binds” in each case.

B6: ME4.B12 anti-PD-L1 antibody (IgG form) (antibody, V domains shown)
VH: QVQLVESGAEVKKPGSSVKVSCKASGGTFNNYAVSWVRQAPGQGLEWMGRIIPILGIANYAQTFQGRVTITADKSTTTAYMELSSLRSEDTAVYYCARSSFGYSVGAFDIWGQGTMVTVSS
VL: QFVLTQPPSVSGAPGQRVTISCTGSSSNIGAGYDVHWYQQLPGTAPKVLIYGNSDRPSGVPDRFSGSKSGTSASLAITGLQGEDKATYYCQSYDSRLSGPVFGTGTKVTVLG
Take B6: the binding result in experiment [4] and in experiment [5] was “binds” each time.

B7: ME4.B10 anti-PD-L1 antibody (IgG form) (antibody, V domains shown)
VH: QVQLVESGAEVKKPGSSVKVSCKASGGTFNNYAVSWVRQAPGQGLEWMGRIIPILGIANYAQTFQGRVTITADKSTTTAYMELSSLRSEDTAVYYCARSARGYAHGAFDIWGQGTMVTVSS
VL: QFVLTQPPSVSGAPGQRVTISCTGSSSNIGAGYDVHWYQQLPGTAPKVLIYGNSDRPSGVPDRFSGSKSGTSASLAITGLQGEDKATYYCQSYDSRLSGPVFGTGTKVTVLG
Regarding B7, the binding result in experiment [4] and in experiment [5] was “binds” each time.
